From US12486246B2, “Replication protein A (RPA)-DNA interaction inhibitors” (THE TRUSTEES OF INDIANA UNIVERSITY, priority 2019, dated 2025)
Some of these results come from one statement about several compounds together.

Amino acid sequences for entries named in this document (tags omitted).
UniProt P27694, whole entry: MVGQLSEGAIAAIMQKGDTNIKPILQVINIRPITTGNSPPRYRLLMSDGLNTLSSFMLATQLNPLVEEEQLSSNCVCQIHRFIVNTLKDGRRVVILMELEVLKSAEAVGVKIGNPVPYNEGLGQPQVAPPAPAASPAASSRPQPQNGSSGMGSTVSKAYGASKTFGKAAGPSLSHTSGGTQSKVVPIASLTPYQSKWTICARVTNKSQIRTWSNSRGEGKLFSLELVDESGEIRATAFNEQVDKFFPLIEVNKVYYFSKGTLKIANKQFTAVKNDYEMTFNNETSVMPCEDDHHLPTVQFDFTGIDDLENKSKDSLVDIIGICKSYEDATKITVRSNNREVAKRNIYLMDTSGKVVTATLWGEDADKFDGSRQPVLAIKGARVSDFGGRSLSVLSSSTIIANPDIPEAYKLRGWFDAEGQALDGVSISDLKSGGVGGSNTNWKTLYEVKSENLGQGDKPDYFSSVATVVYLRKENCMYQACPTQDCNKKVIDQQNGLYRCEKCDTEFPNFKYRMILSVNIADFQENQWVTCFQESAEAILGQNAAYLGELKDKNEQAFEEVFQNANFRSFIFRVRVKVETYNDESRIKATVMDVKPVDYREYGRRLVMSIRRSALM

Biological target: T1, full length heterotrimeric human RPA (Homo sapiens, UniProt P27694)
T1 construct: Full length, heterotrimeric human RPA (fl-RPA) and DBD-A/B constructs were expressed and purified; made in house
Assay: Electrophoretic mobility shift assay (EMSA), binding of full length human RPA to ssDNA
Method: Full length, heterotrimeric human RPA (fl-RPA) and DBD-A/B constructs were expressed and purified according to previously described protocol. The DBD-A/B construct was expressed as a His6-RPA181-422 fusion protein. E. coli BL21 (DE3) cells in log growth were induced for 3 h with 0.5 mM IPTG at 37° C. The cells were lysed via sonication in buffer containing 20 mM Tris pH 7.5, 500 mM NaCl, 10 mM b-mercaptoethanol, supplemented with 25 μg/mL lysozyme, 1 μg/mL leupeptin, 1 μg/mL pepstatin and 0.5 mM PMSF. The lysate was applied to a 20 mL phosphocellulose column equilibrated in the same buffer and the flow-through material collected, brought to 5 mM Imidazole and loaded onto a 2 ml Ni-NTA column. The column was washed and proteins eluted on with a gradient from 50 mM to 500 mM imidazole. Fractions were assessed by EMSA and SDS-PAGE and DBD-A/B containing fraction were pool, dialyzed against buffer containing 50 mM HEPES pH 7.0, 500 mM NaCl and 1 mM DTT and stored at −80° C.
EMSAs were carried out using previously described procedure with the following modification. EMSA reactions (20 μL) were performed with 50 nM fl-RPA and 2.5 nM 5′ [^32P]-labeled 34-base DNA in buffer containing 20 mM HEPES (pH 7.8), 1 mM DTT, 0.001% NP-40, 50 mM NaCl. Chemical compounds were suspended in DMSO and DMSO concentration in the reaction mixture was kept constant at 2% or below 5%. RPA was incubated with inhibitor or DMSO control in reaction buffer for 30 min before the addition of DNA. Reactions were incubated for 5 min at room temperature and products separated via 6% native polyacrylamide gel electrophoresis. The bound and unbound fractions were then quantified by phosphor-imager analysis using ImageQuant software (Molecular Dynamics, CA) and IC50 values calculated by non-linear regression using SigmPlot (Sysat). For EMSA reactions with RPA DBD-A/B, 150 nM DBD-A/B was used, and electrophoresis was performed at 4° C. All other conditions were identical to those described for the full-length RPA.
Purified full length heterotrimeric human RPA protein was used to screen a series of analogs in an electrophoretic mobility shift assay (EMSA) measuring direct binding to a ss-DNA substrate. Quantification of the EMSA data and additional concentration dependent analysis to measure IC50 values of newly synthesized analogs provided potential insight into the structure-activity relationships (Table 1 and 2). […] Fluorine and trifluoromethyl substituents were included in pyridinyl compounds 28-29.

Compound	potency toward full length RPA compared to the DBD-A/B construct
CCOc1ccc2cc(C3CC(c4ccc(-c5ccc(Br)nc5)cc4)=NN3C(=O)CCCC(=O)O)c(Cl)nc2c1 (centres unmarked) [Compound 27, 5-(3-(4-(6-Bromopyridin-3-yl)phenyl)-5-(2-chloro-7-ethoxyquinolin-3-yl)-4,5-dihydro-1H-pyrazol-1-yl)-5-oxopentanoic acid]	improved potency toward full length RPA compared to the DBD-A/B
CCOc1ccc2cc(C3CC(c4ccc(-c5ccc(N6CCOCC6)cc5)cc4)=NN3C(=O)CCCC(=O)O)c(Cl)nc2c1 (centres unmarked) [Compound 25, 5-(5-(2-Chloro-7-ethoxyquinolin-3-yl)-3-(4′-morpholino-[1,1′-biphenyl]-4-yl)-4,5-dihydro-1H-pyrazol-1-yl)-5-oxopentanoic acid]	improved potency toward full length RPA compared to the DBD-A/B
CCOc1ccc2cc(C3CC(c4ccc(-c5ccc(Cl)nc5)cc4)=NN3C(=O)CCCC(=O)O)c(Cl)nc2c1 (centres unmarked) [Compound 26, 5-(5-(2-Chloro-7-ethoxyquinolin-3-yl)-3-(4-(6-chloropyridin-3-yl)phenyl)-4,5-dihydro-1H-pyrazol-1-yl)-5-oxopentanoic acid]	improved potency toward full length RPA compared to the DBD-A/B
CCOc1ccc2cc(C3CC(c4ccc(-c5cnoc5)cc4)=NN3C(=O)CCCC(=O)O)c(Cl)nc2c1 (centres unmarked) [Compound 24, 5-(5-(2-Chloro-7-ethoxyquinolin-3-yl)-3-(4-(isoxazol-4-yl)phenyl)-4,5-dihydro-1H-pyrazol-1-yl)-5-oxopentanoic acid]	improved potency toward full length RPA compared to the DBD-A/B
CCOc1ccc2cc(C3CC(c4ccc(-c5ccco5)cc4)=NN3C(=O)CCCC(=O)O)c(Cl)nc2c1 (centres unmarked) [Compound 23, 5-(5-(2-Chloro-7-ethoxyquinolin-3-yl)-3-(4-(furan-2-yl)phenyl)-4,5-dihydro-1H-pyrazol-1-yl)-5-oxopentanoic acid]	improved potency toward full length RPA compared to the DBD-A/B
